This passage reports binding results from publication PMC7281538.

The chains behind the UniProt entries cited, without tags or fusion partners.
UniProt P25098: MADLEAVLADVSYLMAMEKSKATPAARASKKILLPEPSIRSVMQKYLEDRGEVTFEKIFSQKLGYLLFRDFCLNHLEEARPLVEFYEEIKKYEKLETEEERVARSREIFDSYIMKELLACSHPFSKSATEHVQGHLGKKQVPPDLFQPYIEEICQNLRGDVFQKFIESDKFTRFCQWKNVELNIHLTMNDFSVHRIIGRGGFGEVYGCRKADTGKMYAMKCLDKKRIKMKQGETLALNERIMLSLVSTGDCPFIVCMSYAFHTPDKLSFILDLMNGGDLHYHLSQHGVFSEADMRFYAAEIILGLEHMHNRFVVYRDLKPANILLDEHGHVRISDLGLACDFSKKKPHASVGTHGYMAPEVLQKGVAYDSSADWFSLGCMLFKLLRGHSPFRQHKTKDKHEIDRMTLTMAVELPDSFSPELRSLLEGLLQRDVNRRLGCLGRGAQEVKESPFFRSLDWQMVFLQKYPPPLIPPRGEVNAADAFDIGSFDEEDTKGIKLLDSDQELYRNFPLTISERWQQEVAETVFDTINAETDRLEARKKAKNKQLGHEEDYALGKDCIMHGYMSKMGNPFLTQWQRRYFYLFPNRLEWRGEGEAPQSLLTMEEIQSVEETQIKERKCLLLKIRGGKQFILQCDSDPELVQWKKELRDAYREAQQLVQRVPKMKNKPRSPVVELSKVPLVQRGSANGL
UniProt Q15717: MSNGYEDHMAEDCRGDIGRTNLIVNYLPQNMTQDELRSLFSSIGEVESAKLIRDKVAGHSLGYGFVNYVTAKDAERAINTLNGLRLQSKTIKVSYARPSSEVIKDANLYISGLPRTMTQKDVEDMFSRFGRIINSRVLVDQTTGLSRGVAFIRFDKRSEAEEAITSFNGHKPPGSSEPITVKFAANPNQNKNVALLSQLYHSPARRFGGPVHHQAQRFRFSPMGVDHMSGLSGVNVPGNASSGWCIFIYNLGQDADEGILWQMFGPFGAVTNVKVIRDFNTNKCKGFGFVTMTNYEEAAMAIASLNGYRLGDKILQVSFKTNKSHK

The target of the assay is recombinant GRK2 full-length protein (UniProt P25098). The assay is described as follows: far-Western, overlay or dot blot; GST-tagged GRK2 fragments (2 µg) and recombinant full-length GRK2 spotted on nitrocellulose; incubated 4 h at 37 °C with GST-HuR (2 µg/mL) in 20 mM Tris-HCl pH 7.5, 100 mM NaCl, 1 mM EDTA, 0.3% NP-40, 10% glycerol, 0.5 mM NaF, 1 mM Na3VO4; both purified.

Results are given in words; binding and its absence hold for the method and conditions named. Some entries that bind do so weakly or less than the wild type.

With “GST-HuR (ELAV-like protein 1, Human antigen R) (from UniProt Q15717 1-326)”, the binding result was “binds”.
